The numbers were not newly measured in patent publication US20090311335A1, “COMBINATION OF A TRIPTAN AND AN NSAID” (priority 2008, published 2009), which cites them from elsewhere.

Regarding `COc1ccc2cc([C@H](C)C(=O)O)ccc2c1` [naproxen, (S)-6-methoxy-methyl-2-naphthaleneacetic acid], under “human, in vivo”, the “plasma concentrations required for anti-inflammatory or analgesic effects” value is 30 to 90 µg/mL. Further, the “plasma levels at which reduced pain intensity was demonstrated” value (sixty postpartum women, 0.5 to 6 hours after oral administration) was 30 to 70 µg/mL. For the same compound, the “plasma levels at which clinical response occurred” value (twenty-four patients with rheumatoid arthritis) is given as “above 50 μg/ml”.
